Laboratory results reported in the supplement of paper PMC10849652.
The list shows a part of the results.

By UniProt entry, the sequences of proteins in these tests, tags left out. Where a name states a change or a piece, a line headed by the entry shows the natural chain unless it says otherwise.
UniProt Q11201: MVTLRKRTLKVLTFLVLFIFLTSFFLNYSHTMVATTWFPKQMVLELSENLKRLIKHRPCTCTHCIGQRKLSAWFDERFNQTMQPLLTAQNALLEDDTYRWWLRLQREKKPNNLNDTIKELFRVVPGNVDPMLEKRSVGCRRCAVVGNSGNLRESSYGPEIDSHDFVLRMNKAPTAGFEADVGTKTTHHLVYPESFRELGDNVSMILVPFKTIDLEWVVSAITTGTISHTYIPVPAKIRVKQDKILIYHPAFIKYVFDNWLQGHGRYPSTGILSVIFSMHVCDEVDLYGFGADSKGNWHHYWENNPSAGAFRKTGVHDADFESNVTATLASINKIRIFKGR
UniProt P36956: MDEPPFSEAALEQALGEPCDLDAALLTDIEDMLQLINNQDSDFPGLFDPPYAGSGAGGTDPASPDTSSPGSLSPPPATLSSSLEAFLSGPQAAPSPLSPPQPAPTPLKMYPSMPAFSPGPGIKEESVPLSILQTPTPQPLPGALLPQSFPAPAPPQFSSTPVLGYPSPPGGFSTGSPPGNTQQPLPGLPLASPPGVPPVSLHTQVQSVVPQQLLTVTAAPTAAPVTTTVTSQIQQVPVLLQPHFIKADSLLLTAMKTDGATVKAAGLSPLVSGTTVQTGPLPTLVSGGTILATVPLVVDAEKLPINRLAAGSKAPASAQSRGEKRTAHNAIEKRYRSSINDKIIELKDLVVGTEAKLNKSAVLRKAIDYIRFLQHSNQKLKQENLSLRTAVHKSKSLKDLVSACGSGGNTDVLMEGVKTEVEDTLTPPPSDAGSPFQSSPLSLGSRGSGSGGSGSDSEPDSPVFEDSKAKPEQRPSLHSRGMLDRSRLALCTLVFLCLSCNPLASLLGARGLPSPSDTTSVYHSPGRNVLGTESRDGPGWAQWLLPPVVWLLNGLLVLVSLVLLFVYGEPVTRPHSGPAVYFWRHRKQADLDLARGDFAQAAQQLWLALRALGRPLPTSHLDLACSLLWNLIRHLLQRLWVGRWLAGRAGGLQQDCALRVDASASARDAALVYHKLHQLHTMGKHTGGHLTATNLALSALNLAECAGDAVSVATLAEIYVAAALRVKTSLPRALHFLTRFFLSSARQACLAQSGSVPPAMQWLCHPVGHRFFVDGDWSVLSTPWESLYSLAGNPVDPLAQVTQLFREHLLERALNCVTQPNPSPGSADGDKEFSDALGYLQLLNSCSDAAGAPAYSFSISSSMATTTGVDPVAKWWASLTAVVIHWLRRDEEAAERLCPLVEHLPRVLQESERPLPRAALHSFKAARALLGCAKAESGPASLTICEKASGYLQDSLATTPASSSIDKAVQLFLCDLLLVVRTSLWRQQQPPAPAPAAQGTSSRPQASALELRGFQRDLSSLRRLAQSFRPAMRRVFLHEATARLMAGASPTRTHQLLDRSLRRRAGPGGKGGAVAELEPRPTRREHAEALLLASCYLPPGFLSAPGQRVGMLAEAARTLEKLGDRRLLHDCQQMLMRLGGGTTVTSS
UniProt Q9C0H9: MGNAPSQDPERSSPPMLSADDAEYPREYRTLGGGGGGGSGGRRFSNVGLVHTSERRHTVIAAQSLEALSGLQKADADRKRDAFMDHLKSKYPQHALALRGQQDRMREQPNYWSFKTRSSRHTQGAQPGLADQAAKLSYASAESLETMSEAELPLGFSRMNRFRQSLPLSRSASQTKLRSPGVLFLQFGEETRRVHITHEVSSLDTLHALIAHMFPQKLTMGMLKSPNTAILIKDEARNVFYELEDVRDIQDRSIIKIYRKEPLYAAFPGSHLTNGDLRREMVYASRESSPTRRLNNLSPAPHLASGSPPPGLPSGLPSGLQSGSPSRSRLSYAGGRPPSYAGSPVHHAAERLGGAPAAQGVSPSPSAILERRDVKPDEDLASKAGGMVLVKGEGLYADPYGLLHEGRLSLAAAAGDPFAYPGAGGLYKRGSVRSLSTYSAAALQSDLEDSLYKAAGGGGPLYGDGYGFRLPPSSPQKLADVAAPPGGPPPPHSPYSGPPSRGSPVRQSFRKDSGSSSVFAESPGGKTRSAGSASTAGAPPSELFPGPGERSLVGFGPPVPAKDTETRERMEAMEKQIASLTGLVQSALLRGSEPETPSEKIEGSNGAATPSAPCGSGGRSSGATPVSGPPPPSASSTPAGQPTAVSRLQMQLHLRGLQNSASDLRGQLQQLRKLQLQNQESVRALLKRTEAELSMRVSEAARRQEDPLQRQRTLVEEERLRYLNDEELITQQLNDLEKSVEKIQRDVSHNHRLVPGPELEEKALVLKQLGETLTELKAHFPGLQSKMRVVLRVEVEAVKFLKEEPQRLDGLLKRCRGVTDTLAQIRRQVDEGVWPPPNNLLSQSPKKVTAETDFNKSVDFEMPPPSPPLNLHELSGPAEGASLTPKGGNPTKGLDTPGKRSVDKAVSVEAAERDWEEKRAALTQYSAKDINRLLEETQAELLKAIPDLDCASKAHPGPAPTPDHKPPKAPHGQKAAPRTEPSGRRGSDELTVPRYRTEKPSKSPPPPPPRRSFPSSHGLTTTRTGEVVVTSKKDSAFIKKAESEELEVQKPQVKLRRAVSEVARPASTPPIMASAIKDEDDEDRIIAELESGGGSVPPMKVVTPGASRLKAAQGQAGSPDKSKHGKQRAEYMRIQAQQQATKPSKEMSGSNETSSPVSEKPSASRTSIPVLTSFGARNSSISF
UniProt Q7Z699: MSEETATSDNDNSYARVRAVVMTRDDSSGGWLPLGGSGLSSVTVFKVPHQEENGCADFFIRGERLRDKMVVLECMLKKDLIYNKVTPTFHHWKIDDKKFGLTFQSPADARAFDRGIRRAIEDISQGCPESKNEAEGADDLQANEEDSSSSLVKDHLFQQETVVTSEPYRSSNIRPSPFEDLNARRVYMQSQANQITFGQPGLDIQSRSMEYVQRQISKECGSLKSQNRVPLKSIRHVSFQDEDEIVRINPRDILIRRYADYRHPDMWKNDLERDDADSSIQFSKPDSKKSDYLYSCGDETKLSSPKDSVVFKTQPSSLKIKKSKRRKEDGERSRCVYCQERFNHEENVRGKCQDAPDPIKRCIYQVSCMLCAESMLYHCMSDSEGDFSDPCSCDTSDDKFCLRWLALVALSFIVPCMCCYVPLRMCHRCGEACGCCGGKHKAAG
UniProt O76061, whole entry, looked up: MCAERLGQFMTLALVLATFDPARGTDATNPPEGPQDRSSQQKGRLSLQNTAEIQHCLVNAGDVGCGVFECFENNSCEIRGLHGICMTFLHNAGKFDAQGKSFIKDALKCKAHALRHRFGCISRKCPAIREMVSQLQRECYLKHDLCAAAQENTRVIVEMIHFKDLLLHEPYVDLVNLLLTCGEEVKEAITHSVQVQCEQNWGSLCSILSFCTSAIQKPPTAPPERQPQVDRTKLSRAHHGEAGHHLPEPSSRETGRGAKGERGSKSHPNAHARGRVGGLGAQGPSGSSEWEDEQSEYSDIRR
UniProt Q11206: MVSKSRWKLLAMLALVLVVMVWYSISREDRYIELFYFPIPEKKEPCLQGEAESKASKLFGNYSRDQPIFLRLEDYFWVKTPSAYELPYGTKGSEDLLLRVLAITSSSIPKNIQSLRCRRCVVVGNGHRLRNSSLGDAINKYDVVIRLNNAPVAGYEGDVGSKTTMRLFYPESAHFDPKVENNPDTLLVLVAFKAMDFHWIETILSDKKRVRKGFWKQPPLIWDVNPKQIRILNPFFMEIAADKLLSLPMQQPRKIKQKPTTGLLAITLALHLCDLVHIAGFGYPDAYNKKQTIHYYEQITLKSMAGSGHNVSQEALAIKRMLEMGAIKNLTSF
UniProt Q96EA4: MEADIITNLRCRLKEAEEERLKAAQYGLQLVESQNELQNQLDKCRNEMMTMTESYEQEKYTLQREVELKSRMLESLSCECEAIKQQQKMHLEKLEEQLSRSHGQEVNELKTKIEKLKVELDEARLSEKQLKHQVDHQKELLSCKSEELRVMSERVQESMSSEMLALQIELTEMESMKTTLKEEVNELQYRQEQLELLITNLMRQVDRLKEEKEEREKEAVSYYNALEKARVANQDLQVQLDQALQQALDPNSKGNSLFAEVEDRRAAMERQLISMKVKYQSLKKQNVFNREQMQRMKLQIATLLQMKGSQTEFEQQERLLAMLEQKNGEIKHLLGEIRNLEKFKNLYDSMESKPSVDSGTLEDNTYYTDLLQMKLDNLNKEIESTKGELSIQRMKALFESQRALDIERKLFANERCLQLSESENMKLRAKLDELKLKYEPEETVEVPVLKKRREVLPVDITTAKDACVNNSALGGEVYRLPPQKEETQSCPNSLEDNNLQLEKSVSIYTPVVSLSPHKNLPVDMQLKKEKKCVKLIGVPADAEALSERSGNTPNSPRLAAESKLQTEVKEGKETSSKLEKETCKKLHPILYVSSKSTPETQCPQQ
UniProt Q56A73: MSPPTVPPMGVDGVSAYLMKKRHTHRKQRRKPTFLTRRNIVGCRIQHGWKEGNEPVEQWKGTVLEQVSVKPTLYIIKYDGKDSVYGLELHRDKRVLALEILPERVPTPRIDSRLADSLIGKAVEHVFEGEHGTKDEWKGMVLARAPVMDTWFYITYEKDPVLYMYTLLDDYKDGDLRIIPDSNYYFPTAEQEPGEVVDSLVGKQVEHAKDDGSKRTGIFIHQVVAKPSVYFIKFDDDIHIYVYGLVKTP
UniProt P43308: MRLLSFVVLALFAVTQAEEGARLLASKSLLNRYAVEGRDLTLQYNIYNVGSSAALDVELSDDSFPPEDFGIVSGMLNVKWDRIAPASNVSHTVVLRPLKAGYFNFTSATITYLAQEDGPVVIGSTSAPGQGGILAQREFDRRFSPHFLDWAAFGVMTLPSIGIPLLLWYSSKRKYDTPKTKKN
UniProt Q7Z6B7: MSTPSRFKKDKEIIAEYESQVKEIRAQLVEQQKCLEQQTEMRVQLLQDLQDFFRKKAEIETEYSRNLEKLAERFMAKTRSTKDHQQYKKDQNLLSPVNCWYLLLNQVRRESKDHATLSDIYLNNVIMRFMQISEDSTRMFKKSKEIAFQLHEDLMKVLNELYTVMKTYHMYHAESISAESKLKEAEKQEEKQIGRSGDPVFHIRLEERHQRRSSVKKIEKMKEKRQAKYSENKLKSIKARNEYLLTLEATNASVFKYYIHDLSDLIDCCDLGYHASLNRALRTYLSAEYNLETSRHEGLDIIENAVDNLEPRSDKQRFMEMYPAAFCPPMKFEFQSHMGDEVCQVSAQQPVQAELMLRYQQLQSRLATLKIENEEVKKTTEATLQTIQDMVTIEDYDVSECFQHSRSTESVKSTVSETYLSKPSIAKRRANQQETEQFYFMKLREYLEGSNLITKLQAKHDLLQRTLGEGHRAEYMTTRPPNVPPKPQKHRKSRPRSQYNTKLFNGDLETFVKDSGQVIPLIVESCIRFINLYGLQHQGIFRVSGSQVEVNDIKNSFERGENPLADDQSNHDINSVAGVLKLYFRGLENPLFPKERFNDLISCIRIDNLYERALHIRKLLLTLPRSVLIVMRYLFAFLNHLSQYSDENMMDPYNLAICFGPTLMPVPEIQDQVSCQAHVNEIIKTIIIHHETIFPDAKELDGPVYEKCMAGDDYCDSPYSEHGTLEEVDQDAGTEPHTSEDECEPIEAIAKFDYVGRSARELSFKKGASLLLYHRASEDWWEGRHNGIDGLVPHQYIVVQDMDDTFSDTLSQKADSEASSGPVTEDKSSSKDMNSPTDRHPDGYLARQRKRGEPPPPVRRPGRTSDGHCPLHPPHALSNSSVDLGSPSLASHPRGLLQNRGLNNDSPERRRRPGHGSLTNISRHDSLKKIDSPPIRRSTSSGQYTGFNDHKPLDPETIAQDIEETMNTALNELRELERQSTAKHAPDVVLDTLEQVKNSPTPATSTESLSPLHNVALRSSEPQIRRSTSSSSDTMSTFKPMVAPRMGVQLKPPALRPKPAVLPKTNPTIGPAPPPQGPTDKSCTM
UniProt Q9H8P0: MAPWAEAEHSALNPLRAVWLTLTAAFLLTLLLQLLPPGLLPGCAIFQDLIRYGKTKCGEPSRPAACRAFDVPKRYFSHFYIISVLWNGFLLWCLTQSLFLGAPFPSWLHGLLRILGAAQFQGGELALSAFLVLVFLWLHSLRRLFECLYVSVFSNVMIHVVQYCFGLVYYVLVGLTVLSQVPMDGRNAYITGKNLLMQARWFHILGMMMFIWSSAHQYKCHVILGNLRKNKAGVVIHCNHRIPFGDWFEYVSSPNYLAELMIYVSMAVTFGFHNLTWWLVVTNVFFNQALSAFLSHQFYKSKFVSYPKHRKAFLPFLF
UniProt O94768: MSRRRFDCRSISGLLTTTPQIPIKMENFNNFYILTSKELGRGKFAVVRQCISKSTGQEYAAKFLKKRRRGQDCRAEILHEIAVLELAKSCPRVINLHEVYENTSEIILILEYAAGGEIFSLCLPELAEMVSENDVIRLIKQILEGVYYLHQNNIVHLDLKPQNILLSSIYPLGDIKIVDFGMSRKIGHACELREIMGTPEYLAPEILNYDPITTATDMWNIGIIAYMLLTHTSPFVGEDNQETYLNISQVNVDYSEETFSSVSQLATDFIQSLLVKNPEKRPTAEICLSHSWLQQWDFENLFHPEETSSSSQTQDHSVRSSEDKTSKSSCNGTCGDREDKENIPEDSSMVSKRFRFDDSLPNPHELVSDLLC

Tests used:
Test in all cases: log2 fold change, soluble protein after heating vs DMSO (PISA); higher = thermal stabilisation; K562 cells, 10 uM, 30 min; active = over 0.2 and 3.5 SD of the protein, either way, in both replicates (recomputed)
[1] = compound: C[C@@H]1COCCN1C2=NC(=NC(=C2)C3(CC3)S(=O)(=O)C)C4=C5C=CNC5=CC=C4
Method in brief: (§1)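 K562 cells at 2×10^6 cells/mL were treated with 10 μM compound for 30 min. Aliquots were heated for 3 min across 48°C-58°C, pooled, and extracted in PBS with 0.5% NP-40 at 4°C; soluble protein was the supernatant after 21,000xg for 90 min. Soluble protein was quantified by TMTpro 16plex LC-MS/MS with channel sums equalised, and reported as log2 fold change in thermal stability against DMSO controls, with values from duplicates.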

[2] = compound: C[C@H](C1=CC=C(C=C1)C(=O)NC2=C3C=CNC3=NC=C2)N
Method in brief: as §1

duvelisib = compound: C[C@H](Nc1ncnc2nc[nH]c12)c1cc2cccc(Cl)c2c(=O)n1-c1ccccc1 [duvelisib]
Method in brief: as §1

[3] = compound: Cc1cc(SCc2sc(-c3ccc(C(F)(F)F)cc3)nc2C)ccc1OCC(=O)O
Method in brief: as §1

dasatinib = compound: Cc1nc(Nc2ncc(C(=O)Nc3c(C)cccc3Cl)s2)cc(N2CCN(CCO)CC2)n1 [dasatinib]
Method in brief: as §1

[4] = compound: Cn1cc(-c2ccc3c(c2)CCN3C(=O)Cc2cccc(C(F)(F)F)c2)c2c(N)ncnc21
Method in brief: as §1

tipifarnib = compound: Cn1cncc1[C@@](N)(c1ccc(Cl)cc1)c1ccc2c(c1)c(-c1cccc(Cl)c1)cc(=O)n2C [tipifarnib]
Method in brief: as §1

crizotinib = compound: C[C@@H](Oc1cc(-c2cnn(C3CCNCC3)c2)cnc1N)c1c(Cl)ccc(F)c1Cl [crizotinib]
Method in brief: as §1

doramapimod = compound: Cc1ccc(-n2nc(C(C)(C)C)cc2NC(=O)Nc2ccc(OCCN3CCOCC3)c3ccccc23)cc1 [doramapimod]
Method in brief: as §1

bafetinib = compound: Cc1ccc(NC(=O)c2ccc(CN3CC[C@H](N(C)C)C3)c(C(F)(F)F)c2)cc1Nc1nccc(-c2cncnc2)n1 [bafetinib]
Method in brief: as §1

mubritinib = compound: FC(F)(F)c1ccc(/C=C/c2nc(COc3ccc(CCCCn4ccnn4)cc3)co2)cc1 [mubritinib]
Method in brief: as §1

gandotinib = compound: Cc1cc(Nc2cc(CN3CCOCC3)c3nc(C)c(Cc4ccc(Cl)cc4F)n3n2)n[nH]1 [gandotinib]
Method in brief: as §1

ispinesib = compound: Cc1ccc(C(=O)N(CCCN)[C@@H](c2nc3cc(Cl)ccc3c(=O)n2Cc2ccccc2)C(C)C)cc1 [ispinesib]
Method in brief: as §1

[5] = compound: Cc1cccc(CC(=O)N2CCc3c2ccc(-c2cn(C)c4ncnc(N)c24)c3F)n1
Method in brief: as §1

[6] = compound: Cn1cc(-c2ccc3nnc(C(F)(F)c4ccc5ncccc5c4)n3n2)cn1
Method in brief: as §1

nilotinib = compound: Cc1cn(-c2cc(NC(=O)c3ccc(C)c(Nc4nccc(-c5cccnc5)n4)c3)cc(C(F)(F)F)c2)cn1 [nilotinib]
Method in brief: as §1

[7] = compound: Cc1nc(Nc2n[nH]c3c2CN(C(=O)N[C@H](CN(C)C)c2ccccc2)C3(C)C)c2sccc2n1
Method in brief: as §1

[8] = compound: Cc1ncc(-c2ccnc(Nc3ccc(S(C)(=O)=O)cc3)n2)n1C(C)C
Method in brief: as §1

[9] = compound: CS(=O)(=O)c1ccc(-c2cnc(N)c(C(=O)Nc3ccccc3)n2)cc1
Method in brief: as §1

tozasertib = compound: Cc1cc(Nc2cc(N3CCN(C)CC3)nc(Sc3ccc(NC(=O)C4CC4)cc3)n2)n[nH]1 [tozasertib]
Method in brief: as §1

Measured: log2 fold change

ST3GAL1 (UniProt Q11201)
inactive: [1] 0.16 | [2] 0.131 | duvelisib -0.011 | [3] 0.078 | dasatinib -0.018 | [4] -0.224 | tipifarnib 0.105

SREBF1 isoform 4 (UniProt P36956)
inactive: crizotinib 0.106 | [1] 0.084 | [3] 0.089 | doramapimod 0.098 | bafetinib -0.357 | dasatinib -0.043 | mubritinib -0.004

SRCIN1 (UniProt Q9C0H9)
inactive: gandotinib 0 | ispinesib -0.204 | bafetinib 0.251 | [5] -0.087 | [6] -0.149

SRBD1 (UniProt Q8N5C6)
inactive: [1] 0.233 | gandotinib 0.146 | [5] -0.104

SPTY2D1 (UniProt Q68D10)
inactive: [1] -0.269

SPRED1 (UniProt Q7Z699)
inactive: [1] -0.224 | [2] 0.005 | ispinesib 0.199 | [4] -0.028 | [6] 0.052

STC2 (UniProt O76061)
inactive: gandotinib 0.119 | ispinesib 0.222 | bafetinib 0.165 | [5] -0.044 | nilotinib 0.171 | [7] -0.224 | [8] 0.082 | [6] 0.129 | tipifarnib 0.292

SSBP4 (UniProt U3KPY3)
inactive: mubritinib 0.046

ST3GAL4 isoform 4 (UniProt Q11206)
inactive: [9] -0.037 | [1] 0.005 | [2] -0.053 | tozasertib -0.007 | bafetinib 0.081 | nilotinib 0.094 | [7] 0.038 | [8] 0.116 | [4] -0.282

SPDL1 (UniProt Q96EA4)
inactive: [9] -0.113 | [2] 0.3 | duvelisib -0.075 | tozasertib 0.015 | [3] 0.062 | ispinesib -0.255 | dasatinib -0.129 | [4] 0.075 | [6] 0.131 | tipifarnib 0.233

STK16 (UniProt O75716)
inactive: crizotinib -0.017 | [1] 0.108 | doramapimod -0.092

SPIN4 (UniProt Q56A73)
inactive: crizotinib 0.108 | doramapimod -0.213

SS18L1 (UniProt O75177)
inactive: tipifarnib -0.008

SSBP2 (UniProt P81877)
inactive: [1] 0.136 | [2] -0.289 | gandotinib -0.029 | ispinesib 0.062 | bafetinib -0.005 | [5] -0.085 | [4] 0.014 | [6] -0.007 | tipifarnib -0.166 | mubritinib -0.018

SSR2 (UniProt P43308)
inactive: nilotinib 0.141 | [7] -0.999 | [8] -0.009 | mubritinib -0.1

SRGAP1 (UniProt Q7Z6B7)
inactive: crizotinib -0.081 | [1] -0.129 | gandotinib -0.002 | tozasertib -0.184 | doramapimod 0.029 | ispinesib 0.001 | bafetinib -0.019 | [5] 0.043 | nilotinib -0.1 | [7] -0.023 | [8] 0.02 | [6] -0.073 | tipifarnib 0.128 | mubritinib -0.252

Six successive entries already listed:
ST3GAL1 (UniProt Q11201)
inactive: [1] 0.16 | [2] 0.131 | duvelisib -0.011 | [3] 0.078 | dasatinib -0.018 | [4] -0.224 | tipifarnib 0.105

SREBF1 isoform 4 (UniProt P36956)
inactive: crizotinib 0.106 | [1] 0.084 | [3] 0.089 | doramapimod 0.098 | bafetinib -0.357 | dasatinib -0.043 | mubritinib -0.004

SRCIN1 (UniProt Q9C0H9)
inactive: gandotinib 0 | ispinesib -0.204 | bafetinib 0.251 | [5] -0.087 | [6] -0.149

SRBD1 (UniProt Q8N5C6)
inactive: [1] 0.233 | gandotinib 0.146 | [5] -0.104

SPTY2D1 (UniProt Q68D10)
inactive: [1] -0.269

SPRED1 (UniProt Q7Z699)
inactive: [1] -0.224 | [2] 0.005 | ispinesib 0.199 | [4] -0.028 | [6] 0.052

Next part.

SRD5A3 (UniProt Q9H8P0)
inactive: crizotinib -0.203 | gandotinib 0.322 | doramapimod -0.254 | ispinesib -0.537 | bafetinib -0.304 | [5] 0.198 | nilotinib -0.142 | [7] -0.106 | [8] 0.063 | [6] 0.108 | mubritinib 0.171

STK17B (UniProt O94768)
inactive: crizotinib -0.227 | doramapimod -0.085 | bafetinib 0.024

SPRR2B (UniProt P35325)
inactive: [1] 0.059 | bafetinib -0.303 | nilotinib 0.148 | [7] 0.126 | [8] -0.078 | mubritinib -0.002

STIP1 (UniProt H0YGI8)
inactive: gandotinib -0.037 | [5] -0.127

SPEN (UniProt Q96T58)
inactive: [1] 0.01 | [2] 0.037 | duvelisib 0.007 | gandotinib 0.049 | tozasertib -0.114 | [3] -0.199 | ispinesib -0.065 | bafetinib -0.055 | [5] -0.004 | nilotinib -0.022 | [7] -0.137 | dasatinib 0.009 | [8] -0.036 | [4] 0.12 | [6] 0.012 | tipifarnib 0.06 | mubritinib -0.043

STK19 (UniProt P49842)
inactive: ispinesib -0.083 | [6] -0.176

SPATA33 isoform 2 (UniProt Q96N06)
inactive: [9] -0.058 | [2] -0.037 | duvelisib 0.078 | gandotinib 0.002 | tozasertib -0.039 | [3] 0.038 | ispinesib 0.124 | bafetinib 0.059 | [5] -0.029 | nilotinib -0.065 | [7] -0.279 | dasatinib -0.003 | [8] -0.004 | [4] 0.035 | [6] 0.093 | tipifarnib -0.074

SPHK2 isoform 5 (UniProt Q9NRA0)
inactive: [9] 0.122 | tipifarnib -0.015
